{"source": "patent US20250340847A1", "about": "“CELL CULTURE SYSTEM, USES THEREOF AND CELLS DERIVED THEREFROM” (UNIVERSITY OF PITTSBURGH-OF THE COMMONWEALTH SYSTEM OF …, priority 2022, published 2025)", "system": "BMP4 signaling", "test": "BMP4 signaling inhibition in iDiscoid culture, immunofluorescence", "type": "cell-based, human", "conditions": "3 μM Dorsomorphin at day 3 of iDiscoid culture", "note": "At least one structure is not confirmed: it was looked up by name or label, or the drawing left a doubt.", "data": [{"smiles": "c1cc(-c2cnn3cc(-c4ccc(OCCN5CCCCC5)cc4)cnc23)ccn1", "note": "[dorsomorphin]", "values": [{"measurement": "NANOG expression", "value": "maintained"}, {"measurement": "SMAD1/5/8 phosphorylation", "value": "effective suppression"}, {"measurement": "specification of ISL1-expressing amnion-like tissue / ISL1 expression", "value": "did not fully prevent"}, {"measurement": "specification of ISL1-expressing amnion-like tissue / ISL1 expression", "setting": "listed as Dorsomorphin", "value": "decreased"}]}]}
